# According to publication PMC7949094, “Pantoea stewartii WceF is a glycan biofilm-modifying enzyme with a bacteriophage tailspike-like fold” (The Journal of Biological Chemistry, 2021):
# Results are given in words; binding and its absence hold for the method and conditions named. Some entries that bind do so weakly or less than the wild type.
# B1: Pantoea stewartii WceF (residues 29-736, lacking the Tat signal peptide) (enzyme)
# chain: KNTGLALKSVDATAIPKGDVPILTPENVYAMPPQFWQNFQGKLWIGRAGSDARQPGNQIPVFLRDANGNLAQITQPITLNKGNFDQFVKDNAALIANPSHAMALEDSNGQTVFNIPDVSQPGQAAFSQRLAQPAGYQLIGEIPSVDDLRKTRPLFEGAKIKLKSWHPGLEVGGGEFVGSFQPAQDDQGVIFSGDGFHWRRVVDDYNRLSLFDFGAIADGKTDSAPAIKAMYQWSQQSDQPICVQFPAGTFFVTGCDFGEEQRRFFRISGAMVNFGYFPATTIVSDGQSPFVFEVSARWVEISNLIFNGNTDTKPNRQGLLRNTCPGGQFFRGACLRFNNVGGTALSLLDTLDCKIDQWYASACTGDVIQAGWSGQKKGNWDHSTAIELSNFNAQHCKGGKVLNLPRCSQSLIHNGWIEHCDNPGDISNGQWIIDALSLEDCKNPLIAWHSRLNTRQTNLQSGSWIDNSEQGDRWLSAWEMGSTRVESYGVAIDGSLKYNYLTSRWLLENNTSQPVWYELANLYSPTVGDSWEIEVFGQSQFNNGTDSEPLMNLIDGRNTGGRAVIHVQRKKDHAEASWSAEGSSPVLDVRYVAKTDTDTQVFIRLAGWTPSAAIMIKSTAKDRFVTGRCARVDAKMAKATPDSGSHAAPQRFSLHNGKAGVGANEQGDLLLASRALSADNVDTRKPEGFVSVVINGKTVALPYFAIKA
# notes: WceF of Pantoea stewartii subsp. stewartii DSM 30176, amplified from genomic DNA; recombinant construct residues 29-736 without the N-terminal 28 amino acids of the Tat signal peptide (the methods say aa 28-736); residues 34-736 resolved in the electron density; His6 tag followed by a TEV site, cleaved off for the purified protein; The forward primer encodes ...ENLYFQG-AKNTGL, so a glycine …
# Target: Pantoea stewartii WceF (residues 29-736, lacking the Tat signal peptide) (Pantoea stewartii subsp. stewartii) (UniProt H3REJ8)
# Experiment: crystal structure; sitting-drop vapour diffusion at 20 °C; native WceF 8 mg/ml, 20% PEG3350, 200 mM di-ammonium-hydrogen citrate, pH 5.0; three chains in the asymmetric unit; 2.55 Å; both purified
binder,measurement,value
B1,binding,binds
